Results taken from ChEMBL document CHEMBL5260805, “Therapeutic journey of 2,4-thiazolidinediones as a versatile scaffold: An insight into structure activity relationship” (Eur J Med Chem, 2017).
Values after ≈ are worked out from the molar mass of the structure shown.

Test system: Klebsiella pneumoniae
Assay: Antibacterial activity against Klebsiella pneumoniae
Type: functional

`O=C(O)c1cn(C2CC2)c2cc(N3CCNCC3)c(F)cc2c1=O` [CIPROFLOXACIN] was tested, and the MIC was 0.78 µg/mL (≈ 2.35 µM).
